Experimental data published in patent publication US20230416196A1, “DIMER OF BIGUANIDINES AND THEIR THERAPEUTIC USES” (INSTITUT CURIE, priority 2020, published 2023).

Experiments:
mitochondria = test: Subcellular localisation (NanoSIMS imaging, click labeling with fluorescence microscopy) in activated MDM; type: cell-based, human; conditions: aMDM; cytochrome c as mitochondrial marker
[1] = High-resolution mass spectrometry of biguanide:copper(II) complexes; type: physicochemical; conditions: FIG. 3G

Row | Compound | subcellular localisation (mitochondria) | formation of copper(II) complex detected by HRMS [1]
1 | N=C(N)NC(=N)NCCCCCCCCCCCCNC(=N)NC(=N)N [LCC-12, lipophilic copper clamp C12] | accumulation of LCC-12 in mitochondria | formed a mono-adduct with copper(II) at low-micromolar concentrations
2 | C#CCCN(C)C(=N)NC(=N)N [metforminyn, reference compound] | co-localizing with the mitochondrial component cytochrome c | 
3 | CN(C)C(=N)NC(=N)N [Metformin, 1,1-dimethylbiguanid hydrochloride, reference compound] |  | substantially higher concentrations of Met were required to detect a bimolecular copper complex

Counter-ions that a name gives are not always drawn.
